Screen size: about 210,000 compounds; about 5,900 (2.8%) were called active. Inconclusive results (about 5%) are left out. Calls follow the shape of the dose curve; as a rule, active = well fitted activation curve with a large enough effect; inconclusive = small, poorly fitted or top-dose-only effect; inactive = no such curve, though single readings can be large or run the other way. This is a selection; strong and weak results do not stand in their true shares. The source gives no active or inactive call for entries shown without one.
assay: qHTS Assay for Enhancers of SMN2 Splice Variant Expression; conditions: HEK293 SMN2-luciferase splicing reporter, luminescence, 30-36 h; activity change, positive = activation: at 46.1 µM (top of the series) unless noted; also: nearly all actives have a fitted effect of over 55% in size; as to activity change, positive = activation: % of control where 0% means no effect
Method in brief: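 HEK293 cells carry an SMN2 […]–luciferase reporter in which exon 7 inclusion puts luciferase in frame. Cells were plated 10-12 h before compound addition, then incubated 30-36 h at 37C. ONE-Glo luminescence was read; sodium butyrate at 4.5 mM final served as control.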
Potency is read from the fitted curve at half-maximal effect.

SMILES	activity change, positive = activation	Potency
COC(=O)c1cc(CSc2nnc(NC3CCCCC3)s2)oc1C	-56.5%	
O=C(C1CCCCC1)N(CCN1CCN(c2ccccc2CO)CC1)c1ccccn1	inactive: -31.9%	
Cc1cc(/C=N\NC(=O)COc2cccc3cccnc23)c(C)n1-c1ccccc1	-21.8%	
COc1ccc(NC(=O)c2sccc2C)cn1	123%	
CCOC(=O)N1CCN(C(=O)CCCOc2ccccc2)CC1		active: 12.6 µM
O=C(Nc1cccc(Cl)c1Cl)c1ccc2c(c1)N(Cc1cccc(Cl)c1)C(=O)c1ccccc1S2(=O)=O	40.9%	
Cn1cccc1C(=O)OCc1csc(-c2ccccc2)n1		active: 11.2 µM
O=C(Nc1ccc(N2CCCCC2)cc1)c1ccccc1		active: 1.41 µM
COc1ccc2c(CC(=O)Nc3ccccc3OC)coc2c1	48.1%	
CCOC(=O)c1c(O)c2c([nH]c1=O)CCCC2	-4.44%	
CC1(C)Cc2ccccc2C2=C(C(=O)N3CCCCCC3)C(=O)C(=O)N21	-44.9%	
C/C(=N\Nc1ccccn1)c1ccc2c(c1)OCO2	131%	
CCCCN(C)C(=S)Nc1ccc2nc(N3CCN(CC)CC3)cc(C)c2c1	30.9%	
Cc1ccc2cc(C#N)c(NCCCNC(=O)C3CCCO3)nc2c1 (stereo not given)	41.6%	
Cc1ccc(Cn2c(C(C)NC(=O)c3ccccc3)nc3ccccc32)cc1 (stereo not given)	41.6%	
Clc1ccc(-c2cnc(Oc3ccccc3)nc2)cc1		active: 14.1 µM
CC(C)OC(=O)c1ccc(N2C(=O)C3CC=CCC3C2=O)cc1 (stereo not given)	43.1%	
O=C(c1ccco1)N1CCC2(CC1)CN(c1cccc(-c3ccccc3)c1)C2	inactive: -46.6%	
COC(=O)c1cc(NC(=O)N2c3ccccc3Sc3ccccc32)cc(C(=O)OC)c1	inactive: -35.1%	
COc1cc(C(=O)Nc2nc(-c3ccc(F)cc3)cs2)ccc1OCC(=O)N1CCOCC1	-58.4%	
Cc1cc(C)n(-c2nnc(SCC(=O)NC3CCCC3)c3ccccc23)n1	inactive: -39.5%	
CCOC(=O)c1c(-c2ccc(C)cc2)csc1NC(=O)c1cc(=O)c2cc(C)cc(C)c2o1	45.7%	
O=c1c2c3c(sc2ncn1/N=C/c1ccc([N+](=O)[O-])o1)CCCC3	-84.1%	
N/C(=N\OC(=O)/C=C/c1ccccc1)c1ccccc1	51.1%	
O=C(Nc1nc2c(s1)C(=O)CCC2)c1ccccc1		active: 1.58 µM
COc1cnc(-c2ccccn2)nc1Oc1c(C)cccc1C	-97.7%	
COc1ccc(CNc2n[nH]c(NCc3ccc(OC)c(OC)c3)n2)cc1OC	36.2%	
CCn1c(C(=O)NCc2ccccc2Br)cc2oc3ccccc3c21		active: 4.47 µM
COc1ccc(C(=O)C2CCN(C(=O)c3ccc(C)cc3)CC2)cc1	-65.2%	
Cc1ccccc1NC(=O)c1ccc(F)c(S(=O)(=O)N2CCCCC2)c1	-56.2%	

2 entries from above, with each value named:
COc1cc(C(=O)Nc2nc(-c3ccc(F)cc3)cs2)ccc1OCC(=O)N1CCOCC1
  activity change, positive = activation: -58.4%
Cc1cc(C)n(-c2nnc(SCC(=O)NC3CCCC3)c3ccccc23)n1
  activity change, positive = activation: inactive: -39.5%
